From patent publication US7223797B2, “Meldonium salts, method of their preparation and pharmaceutical composition on their basis” (Joint Stock Company “Grindeks”, priority 2003, dated 2007)
For at least one compound, name, drawing or mass did not settle the structure.

Assays:
[1] = Sample hygroscopicity test: H2O content before and after 24 hours at 100% humidity; format: physicochemical
Experimental: Sample hygroscopicity was tested by H2O content determination before the test and after 24 hours maintenance at 100% humidity (keeping in a closed vessel over water). On such conditions, Meldonium absorbs 10% water (as to mass increase) during 24 hours. Water content was determined by titration by Fischer's method; in cases of syrup formation water content is determined by sample mass increase.

[2] = Thermal / storage stability; format: physicochemical; details: loss of crystal hydrate water on heating

C[N+](C)(C)NCCC(=O)[O-] [Meldonium, 3-(2,2,2-trimethylhydrazinium) propionate]
Sample mass increase due to absorbed water [1]: 10%
State of the sample after maintenance at 100% humidity [1]: transformed into a syrup
temperature of active dehydration [2]: 40–45 °C
